The values that follow come from publication PMC3510080, “Identification of Compounds with Anti-Proliferative Activity against Trypanosoma brucei brucei Strain 427 by a Whole Cell Viability Based HTS Campaign” (PLoS Neglected Tropical Diseases, 2012).

This data set has as its system T.b. brucei bloodstream form lister 427. The data set can be described thus: T.b. brucei Alamar Blue viability estimation assay (384-well HTS, retest and rescreen). The format is cell-based, Trypanosoma brucei brucei. To be noted: dose-response of resupplied and reference compounds. As to the method: T.b. brucei lister 427 cells were maintained in log phase growth in 25 cm^2 tissue culture flasks (Corning, NY, USA) by sub-culturing at either 24 or 48 hour intervals. Cells were grown in HMI-9 medium, supplemented with 10% fetal calf serum (FCS) and 100 IU/ml penicillin/streptomycin (Invitrogen, Carlsbad, California, USA) with incubation at 5% CO2 at 37°C in humidified conditions. HEK293 cells were maintained in high glucose DMEM with L-glutamine, supplemented with 1× non-essential amino acids (NEAA; Invitrogen, USA) and 1 mM sodium pyruvate. Growth conditions were in 5% CO2 at 37°C, under humidified conditions.
All reagent and cell additions were made with a Multidrop liquid handler (Thermo Scientific, Newington, NH, USA) under sterile conditions. Fifty-five microliters of 2000 cells/mL of T.b. brucei in HMI-9 medium were added to a black, clear-bottomed 384-well lidded plate (BD Biosciences, Franklin Lanes, NJ, USA). Cells were incubated for 24 hours at 37°C in an atmosphere of 5% CO2 before addition of 5 µl of compounds/DMSO for control wells. Compounds suspended in 100% DMSO or 100% DMSO as controls were pre-diluted 1∶21 in high glucose DMEM without FCS by using a Minitrack robotic liquid handler (PerkinElmer, Waltham, MA, USA). Five microliters of diluted sample was added to the plate to give a final DMSO concentration of 0.417% in the assay. Cells were incubated for an additional 48 hours at 37°C. Ten microliters of 70% Alamar Blue (Biosource, Bethesda, MD, USA) was added to each well (diluted in HMI-9 medium supplemented with 10% FCS) to a final concentration of 10% in the assay. The plate was incubated for two hours under the same conditions, then incubated for 22 hours in the dark at room temperature. Wells were read at 535 nm (excitation) and 590 nm (emission) wavelengths on a Victor II Wallac plate reader (PerkinElmer, USA). Specific dilutions are explained further in the primary and retest assay methodology. Reference drugs used in the assay were pentamidine (Sigma-Aldrich, St Louis, MO, USA), diminazene aceturate (Sigma-Aldrich, USA) and puromycin (Calbiochem, San Deigo, CA, USA). Pentamidine is used to treat patients with HAT and diminazene is a veterinary drug used against T.b. brucei to combat infections in cattle.
Primary screening of the library, consisting of 87,296 compounds in two hundred and forty eight 384-well plates, was undertaken in single point against T.b. brucei. Stock solutions consisted of test compound at a concentration of 5 mM in 100% DMSO. One µl of each compound stock solution was diluted by the addition of 40 µl of dilution medium (high glucose DMEM without FCS) by a multidrop liquid handler (Thermo Scientific, USA). A 5 µl sample of this diluted solution was then added to the trypanosome assay plate. The final concentration of test compound in the assay was […] and that of DMSO was 0.42% v/v. Compounds were screened over a total of 11 days, at an average of 80 plates per day, taking into consideration that the assay incubation was 3 days total. Test compounds were added to plates in batches of 20 at two hour intervals, to maintain the timing of additions and reads.
Compound activity was calculated as the percentage inhibition in relation to positive and negative controls. […] These in-plate negative controls were used in an effort to normalise compound activity in relation to any plate to plate variation in the assay signal. A whole 384-well control plate was included in each day's screening, one per 20 compound plates containing half a plate of 2 µM pentamidine for the positive assay control, and half a plate of 0.42% v/v DMSO as a negative control. The positive assay control was used to calculate compound activity for batches of 20 compound plates. As well providing the positive control data, these whole plate controls were used for the calculation of the Z' to measure the reproducibility of the assay.
With `CC(C)(C)C(=O)NCCc1csc(-c2cccc(F)c2)n1` [Compound 1], the “T.B Hill Slope” value is listed as 3.89.
In the case of `CCS(=O)(=O)N1CCCc2ccc(NS(=O)(=O)c3ccccc3F)cc21` [Compound 5], the “T.B Hill Slope” value was 3.09.
As to `CCC(C)NC(=O)c1nc(-c2ccccc2)cnc1N` (centres unmarked) [Compound 6], the “T.B Hill Slope” value is given as 0.785.
Turning to `O=C(NCCc1n[nH]c(-c2ccc(F)cc2)n1)c1cccc(F)c1` [Compound 2], the “T.B Hill Slope” value is listed as 17.0.
`O=C(Nc1ccc(Cl)c(-c2nc3ncccc3o2)c1)c1ccco1` [Compound 7]: the “T.B Hill Slope” value is listed as 6.80.
Next, `N=C(N)c1ccc(OCCCCCOc2ccc(C(=N)N)cc2)cc1` [Pentamidine, pentamidine, reference compound]: 1.65.
As for `CCOc1ccc(OCc2ccc(C(=O)N3CCCC(C)C3)cc2)cc1` (centres unmarked) [Compound 3], the “T.B Hill Slope” value was 3.21.
Regarding `COc1ccc(C[C@H](N)C(=O)N[C@H]2[C@@H](O)[C@H](n3cnc4c(N(C)C)ncnc43)O[C@@H]2CO)cc1` [Puromycin, puromycin, reference compound], the “T.B Hill Slope” value is 4.90.
With `Cc1cc(O)nc(-n2nc(C)cc2NC(=O)C2CCCC2)n1` [Compound 4], the “T.B Hill Slope” value was 3.33.
As to `N=C(N)c1ccc(/N=N/Nc2ccc(C(=N)N)cc2)cc1` [Diminazene, diminazene aceturate, reference compound], the “T.B Hill Slope” value is 4.25.
For `CCc1ccccc1N=C(NCCN1CCOCC1)NC(=O)c1ccccc1` [Compound 8], the “T.B Hill Slope” value was 3.03.
